For at least one entry, the source does not settle the construct or the ends of the probe. At least one verdict was read from the data and is not stated in words by the source. Tags and fusion partners may be left off the protein sequences shown.
Biological target: T1, TFAM (mitochondrial transcription factor A) (UniProt Q00059)
T1 sequence (looked up, limits assumed): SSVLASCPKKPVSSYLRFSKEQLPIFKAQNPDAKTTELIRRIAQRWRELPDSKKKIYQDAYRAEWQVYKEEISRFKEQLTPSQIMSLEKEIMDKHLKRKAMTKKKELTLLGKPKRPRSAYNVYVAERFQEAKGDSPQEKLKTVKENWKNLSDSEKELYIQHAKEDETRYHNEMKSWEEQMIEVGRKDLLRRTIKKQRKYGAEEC
Assay: EMSA
Conditions: data not shown, 10 mM Tris-HCl pH 7.5, 10 mM KCl, 1 mM DTT, 1 mM EDTA, 6% glycerol, 3 nM probe, 30 or 75 nM TFAM, 30 min, room temperature, 5% native PAGE, 0.5x TBE, recombinant protein

Sequence | binding result (reference for C242T) | binding result (no significant difference from wild type)
TAATAATAACAATTGAATGTCTGCACAG (double strand) [Wild type 242 (CRS 233-260)] | binds | 
TAATAATAATAATTGAATGTCTGCACAG (double strand) [C242T-VAR (J1b, 233-260)] |  | binds

— publication PMC2673036, “Ancient mtDNA Genetic Variants Modulate mtDNA Transcription and Replication”
